The text below walks through data of publication PMC10644579.

These are yes or no findings as the source states them, for the method shown. Binding seen in cells or lysates may run through a third protein. Some binding calls cover weakened binding; strength is not graded here.

The target in this assay is T1, p-ATF2 (phosphorylated activating transcription factor 2) (human (endogenous in H1299)), P15336.
T1 chain: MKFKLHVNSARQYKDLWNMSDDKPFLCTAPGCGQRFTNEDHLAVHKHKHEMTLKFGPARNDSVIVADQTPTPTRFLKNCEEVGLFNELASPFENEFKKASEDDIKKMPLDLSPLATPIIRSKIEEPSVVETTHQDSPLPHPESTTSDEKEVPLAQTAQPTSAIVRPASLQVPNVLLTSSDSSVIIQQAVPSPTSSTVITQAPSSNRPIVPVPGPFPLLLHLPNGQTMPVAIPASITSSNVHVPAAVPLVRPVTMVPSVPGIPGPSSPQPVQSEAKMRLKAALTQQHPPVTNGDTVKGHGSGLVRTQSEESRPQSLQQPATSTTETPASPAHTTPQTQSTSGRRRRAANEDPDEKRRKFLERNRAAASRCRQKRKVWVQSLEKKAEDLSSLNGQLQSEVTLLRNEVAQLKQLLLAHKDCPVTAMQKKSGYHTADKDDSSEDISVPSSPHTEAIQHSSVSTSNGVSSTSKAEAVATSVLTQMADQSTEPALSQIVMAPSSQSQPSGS
The assay can be described thus: co-IP; nuclear proteins (25 ug) of ANKRD49-OE or LV5 (vector) H1299 cells, precleared with Protein A/G Agarose; rabbit anti-ATF2 or normal rabbit IgG, 4 °C 12 h; Protein A/G PLUS Agarose; bound proteins separated by SDS-PAGE. To be noted: remark: other sources report otherwise.

B1: p-c-Jun (phosphorylated c-Jun), P05412 1-331 (protein)
chain: MTAKMETTFYDDALNASFLPSESGPYGYSNPKILKQSMTLNLADPVGSLKPHLRAKNSDLLTSPDVGLLKLASPELERLIIQSSNGHITTTPTPTQFLCPKNVTDEQEGFAEGFVRALAELHSQNTLPSVTSAAQPVNGAGMVAPAVASVAGGSGSGGFSASLHSEPPVYANLSNFNPGALSSGGGAPSYGAAGLAFPAQPQQQQQPPHHLPQQMPVQHPRLQALKEEPQTVPEMPGETPPLSPIDMESQERIKAERKRMRNRIAASKCRKRKLERIARLEEKVKTLKAQNSELASTANMLREQVAQLKQKVMNHVNSGCQLMLTQQLQTF
modifications: here or on the partner: phosphorylated (p-c-Jun); sites not stated; phosphorylated (p-ATF2); sites not stated
Regarding B1, the binding result is “binds”.
